The values below come from doi:10.1101/2024.10.01.616077.

Amino acid sequences for entries named in this document (tags omitted). Residues count along the entry.
UniProt P50284, 31-415: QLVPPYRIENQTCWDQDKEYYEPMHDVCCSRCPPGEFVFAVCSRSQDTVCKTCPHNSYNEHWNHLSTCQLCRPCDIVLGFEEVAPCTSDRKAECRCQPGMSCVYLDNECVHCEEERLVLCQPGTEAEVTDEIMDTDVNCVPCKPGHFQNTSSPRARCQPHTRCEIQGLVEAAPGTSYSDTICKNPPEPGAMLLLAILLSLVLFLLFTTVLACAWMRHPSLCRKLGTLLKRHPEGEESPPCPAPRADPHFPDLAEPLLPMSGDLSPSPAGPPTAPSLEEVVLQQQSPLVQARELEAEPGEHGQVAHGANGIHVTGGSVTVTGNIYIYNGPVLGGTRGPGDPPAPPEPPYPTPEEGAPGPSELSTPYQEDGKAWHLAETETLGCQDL

In assay [1] the target is Lymphotoxin beta receptor (LTβR) of mouse melanoma B16F10 cells (mouse (endogenous in B16F10)) (UniProt P50284). Nature of the assay: co-IP.
For assay [2] the target is unchanged. Kind of assay: co-IP. This is another data set of the same source.

Like-named read-outs stand apart in the source and are kept apart here. Results are given in words; binding and its absence hold for the method and conditions named. Binding seen in cells or lysates may run through a third protein. Some entries that bind do so weakly or less than the wild type.

B1: TRAF3 (protein, UniProt Q60803 1-567)
chain: MESSKKMDAAGTLQPNPPLKLQPDRGAGSVLVPEQGGYKEKFVKTVEDKYKCEKCRLVLCNPKQTECGHRFCESCMAALLSSSSPKCTACQESIIKDKVFKDNCCKREILALQVYCRNEGRGCAEQLTLGHLLVHLKNECQFEELPCLRADCKEKVLRKDLRDHVEKACKYREATCSHCKSQVPMIKLQKHEDTDCPCVVVSCPHKCSVQTLLRSELSAHLSECVNAPSTCSFKRYGCVFQGTNQQIKAHEASSAVQHVNLLKEWSNSLEKKVSLLQNESVEKNKSIQSLHNQICSFEIEIERQKEMLRNNESKILHLQRVIDSQAEKLKELDKEIRPFRQNWEEADSMKSSVESLQNRVTELESVDKSAGQAARNTGLLESQLSRHDQMLSVHDIRLADMDLRFQVLETASYNGVLIWKIRDYKRRKQEAVMGKTLSLYSQPFYTGYFGYKMCARVYLNGDGMGKGTHLSLFFVIMRGEYDALLPWPFKQKVTLMLMDQGSSRRHLGDAFKPDPNSSSFKKPTGEMNIASGCPVFVAQTVLENGTYIKDDTIFIKVIVDTSDLPDP
B1: the binding result in assay [1] is recorded as “binds”.

B2: TRAF2 (protein, UniProt P39429 1-501)
chain: MAAASVTSPGSLELLQPGFSKTLLGTRLEAKYLCSACKNILRRPFQAQCGHRYCSFCLTSILSSGPQNCAACVYEGLYEEGISILESSSAFPDNAARREVESLPAVCPNDGCTWKGTLKEYESCHEGLCPFLLTECPACKGLVRLSEKEHHTEQECPKRSLSCQHCRAPCSHVDLEVHYEVCPKFPLTCDGCGKKKIPRETFQDHVRACSKCRVLCRFHTVGCSEMVETENLQDHELQRLREHLALLLSSFLEAQASPGTLNQVGPELLQRCQILEQKIATFENIVCVLNREVERVAVTAEACSRQHRLDQDKIEALSNKVQQLERSIGLKDLAMADLEQKVSELEVSTYDGVFIWKISDFTRKRQEAVAGRTPAIFSPAFYTSRYGYKMCLRVYLNGDGTGRGTHLSLFFVVMKGPNDALLQWPFNQKVTLMLLDHNNREHVIDAFRPDVTSSSFQRPVSDMNIASGCPLFCPVSKMEAKNSYVRDDAIFIKAIVDLTGL
Turning to B2, the results for the binding entry in assay [2] and in assay [1] were “binds weakly” and “binds”, respectively.
